Experimental data: PubChem BioAssay AID651664 (NMMLSC, 2012)
Hit rate of the full screen: of about 1,800 compounds, fewer than 10 were called active.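 Rule for the calls: active = inhibition of granule release above a set limit; inactive = the rest.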 Some of the results follow.

Test: LAMP-1 surface externalization blockers in TALL-104 cells – cell-based, flow cytometry, validation set (AID 651664)
Conditions: TALL-104 LAMP-1 externalization, at 15.2 µM, hits give high values, stimulated with thapsigargin and PMA

| SMILES | inhibition |
| --- | --- |
| O=C(Nc1ccc(Cl)cc1Cl)C1=Cc2ccccc2OC1 | inactive: 1.8% |
| COC(=O)c1cccc(NC(=O)NC2CCCN2S(=O)(=O)c2ccc(Cl)cc2)c1 (centres undefined) | inactive: 4.3% |
| CN(C)c1ccc(CN2CCCCC2)cc1 | inactive: 1.8% |
| O=C(NCCN1CCN(C(=O)NC2CCCCC2)CC1)NC1CCCCC1 | inactive: 1.1% |
| CCC(Sc1nc(C)cc(C)n1)C(=O)Nc1ccc(Cl)cn1 (centres undefined) | inactive: 1.3% |
| O=C(CSc1nnc(-c2ccc(Cl)cc2)n1Cc1ccco1)NCc1ccc2c(c1)OCO2 | inactive: -0.6% |
| CCS(=O)(=O)N1CCCC(C(=O)NCc2ccccc2Cl)C1 (centres undefined) | inactive: 2.6% |
| C=CCn1c(CSCc2ccc(C)cc2)nnc1SCC(=O)NCc1ccccc1 | inactive: -2.3% |
| COc1ccc2c(c1)C(C1C(=O)CCCC1=O)c1ccccc1O2 (centres undefined) | inactive: 3.3% |
| CCCS(=O)(=O)N1CCCC(C(=O)NCc2ccc3c(c2)OCO3)C1 (centres undefined) | inactive: 1.1% |
| COC(=O)c1ccc(/C=N/NC(=O)CC(=O)NCC(C)C)cc1 | inactive: -2.9% |
| CCC(=O)N1CCN(C(=O)CC)C1c1ccccc1 | inactive: -1% |
| Cc1ccc2nc(NC(=S)NC(=O)c3cccs3)sc2c1 | inactive: -2.1% |
| NNc1ncnc2c1cnn2-c1ccccc1 | inactive: -1.9% |
| O=C(NCCCN1CCOCC1)c1coc2ccccc2c1=O | inactive: -2.7% |
| Cc1nc2c(=O)oc3ccccc3c2n1-c1ccccc1 | inactive: -0.5% |
| CCCCCC(=O)N(O)C1CC(=O)N(c2ccccc2)C1=O (centres undefined) | inactive: -2.2% |
| COC(=O)C1CCN(Cc2cc(=O)oc3cc(OC)ccc23)CC1 | inactive: -0.8% |
| O=P(COCCOCP(=O)(c1ccccc1)c1ccccc1)(c1ccccc1)c1ccccc1 | inactive: -0.5% |
| O=C(Cc1ccccc1)NCc1ccc2c(c1)OCO2 | inactive: -2.6% |
| Cc1ccccc1NC(=O)N1C2CCC1CC(O)(c1cccnc1)C2 (centres undefined) | inactive: -1.6% |
| COCCNC(=O)Cn1cc(C(=O)c2cccs2)c2ccccc21 | inactive: -1.5% |
| CCC(C)(C)NC(=O)C(c1ccc(C)o1)N(Cc1cccs1)C(=O)Cn1nnc2ccccc21 (centres undefined) | inactive: -2% |
| O=C(N/N=C/c1cccnc1)c1ccc([N+](=O)[O-])cc1 | inactive: -5.2% |
| CCc1nn(-c2ccccc2)c2c1-c1cc(OC)c(OC)cc1C1(N2)C(=O)Nc2ccccc21 (centres undefined) | inactive: -0.7% |

| SMILES | inhibition |
| --- | --- |
| COc1cc(NC(=S)NC(=O)c2cc(C)cc(C)c2)ccc1NC(=O)c1cccs1 | inactive: 0% |
| CN1C(=O)C(=C2CCCCCC2)SC1=S | inactive: -1.7% |
| Cc1ccc(SCCNC(=O)c2ccc(C)c([N+](=O)[O-])c2)cc1 | inactive: -3.5% |
| O=C(c1c[nH]c(C(=O)C(Cl)(Cl)Cl)c1)c1ccccc1Cl | inactive: 2.1% |
| COC(=O)c1ccc(N2C(=O)CC(SCCN)C2=O)cc1 (centres undefined) | inactive: -1.8% |
| CC1=NN(c2ccc(Br)cc2)C(=O)/C1=C/c1cccs1 | inactive: -2.7% |
| Cc1ccc(C)c(N=C2NC(=O)CS2)c1 | inactive: -0.7% |
| c1ccc2c(c1)ncn2CCOCCOCCn1cnc2ccccc21 | inactive: -2.5% |
| N#CC(c1ccc(Cl)cc1)c1ccc(Cl)nn1 (centres undefined) | inactive: -0.4% |
| O=C(Cn1cnc2ccc(Cl)cc2c1=O)c1cccs1 | inactive: 2.4% |
| Cc1ccc(-c2nn(CC(=O)NCc3ccco3)c(=O)c3ccccc23)cc1 | inactive: -2% |
| Nc1c(N=Nc2ccccc2F)c(=O)[nH]n1-c1ccccc1 | inactive: -1% |
| O=C(Nc1nc2ccc(Cl)cc2s1)c1ccc(Br)o1 | inactive: 6.4% |
| COc1ccc2[nH]c(=O)c(CN(CC3CCCO3)C(=O)Nc3ccc(F)cc3)cc2c1 (centres undefined) | inactive: -0.2% |
| c1ccc(C(Cc2nc(-c3cccnc3)no2)c2ccccc2)cc1 | inactive: -0.9% |
| CCOC(=O)c1c(C)nc2sc(C(N)=O)c(N)c2c1-c1ccc(OC)cc1 | inactive: 2.1% |
| O=C(Oc1ccc(-c2cnc3ccccc3n2)cc1)c1ccc(Cl)c([N+](=O)[O-])c1 | inactive: 0.7% |
| CN(C(=O)C12CC3CC(CC(C3)C1)C2)C1(C)CCS(=O)(=O)C1 (centres undefined) | inactive: -1.6% |
| O=c1[nH]c(CO)nc2c1oc1ccccc12 | inactive: -3.5% |
| CC(C)N1C(=O)/C(=C/c2nc3ccccc3c(=O)n2-c2ccccc2)c2ccccc21 | inactive: -1% |
| Clc1ccc(Nc2nc(-c3ccncc3)cs2)cc1 | inactive: 2.3% |
| Cc1cc2ncn(CC(O)COC3CCCCC3)c2cc1C (centres undefined) | inactive: -2.3% |
| COc1ccc(Cl)cc1NC(=S)N1CCN(C(=O)c2ccco2)CC1 | inactive: -1.3% |
| CCC(CO)NC(=O)c1cccc(S(=O)(=O)N2c3ccccc3CC2C)c1 (centres undefined) | inactive: 2.2% |
| O=C1CCCCC1C(Nc1ccc(Cl)cc1)c1ccccc1 (centres undefined) | inactive: 1.3% |

| SMILES | inhibition |
| --- | --- |
| COc1cccc(/C=N/NC(=O)C(=O)N2CCCC2)c1OC | inactive: -4.1% |
| CC1=C(C(=O)OCC(C)C)C(c2cccc(F)c2)N2C(=O)C(C)SC2=N1 (centres undefined) | inactive: 1.9% |
| COc1cccc(NC(=O)Nc2cccs2)c1 | inactive: -0.5% |
| c1ccc(-n2ncc(-c3nn[nH]n3)n2)cc1 | inactive: 3% |
| C=CCn1c(=O)/c(=C2/SC(C)=C(C)N2CC)s/c1=C1/C(=O)N(CC)C(=S)N1c1ccccc1 | inactive: -2.3% |
| O=C(Nc1cc(N2CCOCC2)ncn1)c1ccccc1 | inactive: 1.6% |
| O=C(Nc1ccc2c(c1)OCO2)c1ccc(Cl)nc1 | inactive: -1.2% |
| CCc1nc(SCC(=O)N2CCc3cc(OC)c(OC)cc3C2)c(C#N)cc1C | inactive: -0.8% |
| CCn1c(CSCc2ccc(F)cc2)nnc1SCC(=O)N1CCN(c2ccccc2)CC1 | inactive: -4.5% |
| CCc1nc(SCC(=O)Nc2cc(C)on2)c2c(C)c(C)sc2n1 | inactive: -3.5% |
| Cc1ccc2nc(SCC(=O)Nc3cc(C(F)(F)F)ccc3N3CCOCC3)[nH]c2c1 | inactive: 1.1% |
| Cc1cc(NC(c2cccnc2)c2ccc3cccnc3c2O)no1 (centres undefined) | inactive: 0.3% |
| COc1ccc(CCNC(=O)C(C)Sc2ccccc2)cc1OC (centres undefined) | inactive: -1.7% |
| c1ccc(NC2=Nc3ccccc3CS2)cc1 | inactive: 2.9% |
| CCN(CC)C(=O)C1CC(=O)N(c2ccc(F)c(Cl)c2)C1 (centres undefined) | inactive: -0.5% |
| CCc1nc(N2CCOCC2)c(C#N)c2c1COC(C)(C)C2 | inactive: 0.4% |
| C=CCn1c(C)cc(C(=O)CSc2nnc3c(Cl)cc(Cl)cn23)c1C | inactive: -0.2% |
| CCCn1nnc2sc3c(c2c1=O)CCC(C)C3 (centres undefined) | inactive: -2.7% |
| CCN(CC)CCN1C(=O)c2oc3ccccc3c(=O)c2C1c1ccc(C)cc1 (centres undefined) | inactive: 0.5% |
| COc1ccc2[nH]c(=O)c(CN(CCCN(C)C)C(=O)Nc3ccc(F)cc3)cc2c1 | inactive: -3% |
| O=C(NCc1cn2ccsc2n1)c1cccc(C(F)(F)F)c1 | inactive: -0.3% |
| Cc1ccc(Cn2ncc3c(N4CCCC4)ncnc32)cc1 | inactive: 0.5% |
| CCCC(=O)Nc1cccc(Oc2nc(C)cc(C)c2C#N)c1 | inactive: 0.9% |
| Cc1ccc(C2C3=C(CC(C)(C)CC3=O)NC3=C2C(=O)CC(C)(C)C3)o1 | inactive: -3.1% |
| COC(=O)c1ccccc1N/C=C1\CCc2c(c(C)nn2-c2ccccn2)C1=O | inactive: -2.2% |

An excerpt of these results, as labelled records.
COc1cccc(NC(=O)Nc2cccs2)c1
  inhibition: inactive: -0.5%
CCN(CC)C(=O)C1CC(=O)N(c2ccc(F)c(Cl)c2)C1 (centres undefined)
  inhibition: inactive: -0.5%

The listing continues.

| SMILES | inhibition |
| --- | --- |
| O=C(Cn1cnc2ccccc2c1=O)c1ccc2ccccc2c1 | inactive: 0% |
| CC(=O)c1ccc(N2CCN(C(=S)Nc3cccc(F)c3)CC2)cc1 | inactive: -2.9% |
| Cc1cccc(NC(=S)NNC(=O)CC(C)O)c1C (centres undefined) | inactive: 1.1% |
| Cc1[nH]c2ccccc2c1CCNC(=O)c1ccc2c(c1[N+](=O)[O-])C(=O)c1ccccc1C2=O | inactive: 1.2% |
| Cc1cc(N(CC(=O)O)S(C)(=O)=O)ccc1Br | inactive: 0% |
| CCOC(=O)NCN1C(=O)C2C3C=CC(C3)C2C1=O (centres undefined) | inactive: 4.9% |
| Cc1nnc(NCc2ccco2)c2ccccc12 | inactive: -3.2% |
| CCc1ccc(C2=NN(c3ccc(S(N)(=O)=O)cc3)C(c3ccc(F)cc3)C2)cc1 (centres undefined) | inactive: 18.8% |
| CCCCOC(=O)C1C2C=C[C@]3(CN(C(C)c4ccc(OC)cc4)C(=O)[C@H]13)O2 (some centres undefined) | inactive: -1.6% |
| Cc1cc(=O)n2nc(N3CCCC(C(=O)NCc4ccco4)C3)sc2n1 (centres undefined) | inactive: -1.5% |
| Cc1ccc([N+](=O)[O-])cc1NC(=O)c1ccc(-c2ccccc2)cc1 | inactive: 0.2% |
| Cc1ccc(C(=O)C2(C)C3c4cc(Br)ccc4OC(=O)C32C(=O)c2ccco2)cc1 (centres undefined) | active: 93.2% |
| CCOc1cc(NC(=O)c2cccs2)c(OCC)cc1NC(=O)c1ccco1 | inactive: -2.1% |
| C=CCNc1nc(SC)nc2ccsc12 | inactive: 1.1% |
| CC1CN(C(=O)N[C@@H](Cc2ccccc2)C(=O)O)CC(C)O1 (some centres undefined) | inactive: -1.8% |
| CCc1cc(=O)n2c([nH]c3ccccc32)c1C#N | inactive: 0.1% |
| Cc1cnc(C(=O)Nc2nccs2)cn1 | inactive: -2.2% |
| CCOc1cccc(C(=O)N(Cc2ccco2)C2CCS(=O)(=O)C2)c1 (centres undefined) | inactive: -1.1% |
| O=C1C(C=NCc2ccco2)=C(O)c2ccccc21 | inactive: -0.7% |
| COCCN1CN(S(=O)(=O)c2ccc(Cl)cc2)c2nc3ccccc3nc21 | inactive: -1.9% |
| COCC(=O)Nc1nc2n(n1)C(c1ccc(Cl)cc1)CC(c1ccc(OC)cc1)N2 (centres undefined) | inactive: -1% |
| COc1ccc2c(c1OC)C(=O)N(c1ccccn1)C2 | inactive: -1.2% |
| COC(=O)[C@H](C)NC(=O)NCc1ccccc1F | inactive: -2.4% |
| COc1ccc(/C=N/Nc2nc(C)c([N+](=O)[O-])c(N(C)c3ccccc3)n2)cc1OC | inactive: -0.1% |

Of the compounds above, these contain a CF3 group.

| SMILES | inhibition |
| --- | --- |
| Cc1ccc2nc(SCC(=O)Nc3cc(C(F)(F)F)ccc3N3CCOCC3)[nH]c2c1 | inactive: 1.1% |
| O=C(NCc1cn2ccsc2n1)c1cccc(C(F)(F)F)c1 | inactive: -0.3% |
